The values that follow come from doi:10.1101/2020.02.12.946293.

Chains of the proteins cited; added tags and fusions are not shown. Lines headed by an entry give the natural chain unless they say otherwise; changes in a name come on top.
UniProt P40965: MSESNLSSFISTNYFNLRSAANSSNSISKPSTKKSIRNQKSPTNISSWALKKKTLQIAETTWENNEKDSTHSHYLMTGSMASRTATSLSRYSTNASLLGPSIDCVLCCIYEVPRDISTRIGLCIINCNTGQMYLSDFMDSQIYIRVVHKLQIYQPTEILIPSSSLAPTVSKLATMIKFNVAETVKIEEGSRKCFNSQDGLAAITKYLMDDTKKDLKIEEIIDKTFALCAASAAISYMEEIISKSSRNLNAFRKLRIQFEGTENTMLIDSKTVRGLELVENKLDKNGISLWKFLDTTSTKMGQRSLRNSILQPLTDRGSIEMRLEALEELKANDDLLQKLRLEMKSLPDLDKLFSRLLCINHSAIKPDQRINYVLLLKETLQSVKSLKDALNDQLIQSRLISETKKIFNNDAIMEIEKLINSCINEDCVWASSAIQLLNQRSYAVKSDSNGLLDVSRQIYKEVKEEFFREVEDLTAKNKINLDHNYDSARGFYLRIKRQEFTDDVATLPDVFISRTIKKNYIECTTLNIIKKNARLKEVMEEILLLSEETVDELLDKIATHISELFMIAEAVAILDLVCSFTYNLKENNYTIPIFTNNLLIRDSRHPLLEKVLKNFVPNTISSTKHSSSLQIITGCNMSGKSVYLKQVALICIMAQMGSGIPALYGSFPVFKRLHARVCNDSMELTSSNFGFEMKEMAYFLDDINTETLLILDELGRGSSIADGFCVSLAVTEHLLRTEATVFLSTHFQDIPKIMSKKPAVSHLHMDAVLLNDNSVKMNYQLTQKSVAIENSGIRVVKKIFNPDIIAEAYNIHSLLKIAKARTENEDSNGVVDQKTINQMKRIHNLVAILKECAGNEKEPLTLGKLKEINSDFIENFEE
UniProt Q12175: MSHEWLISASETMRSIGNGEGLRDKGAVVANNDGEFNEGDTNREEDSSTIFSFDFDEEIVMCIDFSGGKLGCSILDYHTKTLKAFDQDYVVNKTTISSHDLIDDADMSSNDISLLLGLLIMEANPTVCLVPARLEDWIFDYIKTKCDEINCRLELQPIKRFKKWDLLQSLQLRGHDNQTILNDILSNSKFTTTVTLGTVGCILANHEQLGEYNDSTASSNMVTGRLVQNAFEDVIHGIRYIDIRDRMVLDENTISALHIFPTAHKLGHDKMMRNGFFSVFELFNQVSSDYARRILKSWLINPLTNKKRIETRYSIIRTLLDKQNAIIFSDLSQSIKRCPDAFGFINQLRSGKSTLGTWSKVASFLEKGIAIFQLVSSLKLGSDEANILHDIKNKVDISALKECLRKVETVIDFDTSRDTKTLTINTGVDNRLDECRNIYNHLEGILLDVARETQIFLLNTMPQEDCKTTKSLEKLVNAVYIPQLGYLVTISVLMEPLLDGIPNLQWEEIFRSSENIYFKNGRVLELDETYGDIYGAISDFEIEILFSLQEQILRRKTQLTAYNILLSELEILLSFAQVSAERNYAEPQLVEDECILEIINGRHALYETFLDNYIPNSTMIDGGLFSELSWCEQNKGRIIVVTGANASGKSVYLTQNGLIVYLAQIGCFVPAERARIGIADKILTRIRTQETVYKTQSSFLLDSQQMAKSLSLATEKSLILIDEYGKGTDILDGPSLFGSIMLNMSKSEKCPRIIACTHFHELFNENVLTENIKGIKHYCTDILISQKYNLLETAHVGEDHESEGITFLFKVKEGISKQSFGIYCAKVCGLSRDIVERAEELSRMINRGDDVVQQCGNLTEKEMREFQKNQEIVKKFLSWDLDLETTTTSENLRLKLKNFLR

This assay addresses T1, yMlh1-yMlh3 (S. cerevisiae) (UniProt P38920+Q12083).
T1 sequence 1: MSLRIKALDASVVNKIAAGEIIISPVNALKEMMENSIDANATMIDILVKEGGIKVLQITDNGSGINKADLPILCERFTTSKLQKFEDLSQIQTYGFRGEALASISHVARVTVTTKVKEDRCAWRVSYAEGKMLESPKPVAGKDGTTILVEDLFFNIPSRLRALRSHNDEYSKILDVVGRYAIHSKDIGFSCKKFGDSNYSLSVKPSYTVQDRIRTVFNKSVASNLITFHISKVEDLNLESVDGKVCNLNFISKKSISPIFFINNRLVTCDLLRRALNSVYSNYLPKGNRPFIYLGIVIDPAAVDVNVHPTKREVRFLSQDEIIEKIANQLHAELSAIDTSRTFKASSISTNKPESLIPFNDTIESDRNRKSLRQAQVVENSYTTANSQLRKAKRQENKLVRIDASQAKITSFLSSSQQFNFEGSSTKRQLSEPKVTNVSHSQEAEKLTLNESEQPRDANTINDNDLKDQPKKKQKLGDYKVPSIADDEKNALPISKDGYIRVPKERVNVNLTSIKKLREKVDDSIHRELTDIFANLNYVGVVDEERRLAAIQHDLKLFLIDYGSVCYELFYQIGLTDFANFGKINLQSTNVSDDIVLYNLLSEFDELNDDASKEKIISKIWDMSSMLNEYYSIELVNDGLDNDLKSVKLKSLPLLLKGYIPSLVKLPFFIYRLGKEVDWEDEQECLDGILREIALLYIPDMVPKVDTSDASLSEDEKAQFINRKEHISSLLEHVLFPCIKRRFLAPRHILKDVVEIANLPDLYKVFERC
T1 sequence 2: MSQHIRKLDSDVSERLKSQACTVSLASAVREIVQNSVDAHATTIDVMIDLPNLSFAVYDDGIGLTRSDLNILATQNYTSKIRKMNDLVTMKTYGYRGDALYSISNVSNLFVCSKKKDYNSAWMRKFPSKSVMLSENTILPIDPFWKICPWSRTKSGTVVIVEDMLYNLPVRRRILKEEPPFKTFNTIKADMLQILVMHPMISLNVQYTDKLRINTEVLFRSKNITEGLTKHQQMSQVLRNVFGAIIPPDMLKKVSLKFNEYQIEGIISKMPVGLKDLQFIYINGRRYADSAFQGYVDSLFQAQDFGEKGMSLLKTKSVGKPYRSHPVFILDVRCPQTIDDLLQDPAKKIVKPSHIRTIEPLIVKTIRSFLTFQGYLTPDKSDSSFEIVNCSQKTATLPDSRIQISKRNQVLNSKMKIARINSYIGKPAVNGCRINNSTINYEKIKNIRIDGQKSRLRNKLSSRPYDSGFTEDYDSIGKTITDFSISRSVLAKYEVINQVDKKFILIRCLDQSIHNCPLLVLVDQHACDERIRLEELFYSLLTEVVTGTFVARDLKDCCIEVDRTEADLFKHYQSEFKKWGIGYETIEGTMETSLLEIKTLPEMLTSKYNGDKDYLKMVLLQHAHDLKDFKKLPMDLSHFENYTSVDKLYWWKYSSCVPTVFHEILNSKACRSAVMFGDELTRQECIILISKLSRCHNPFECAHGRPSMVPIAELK
Kind of assay: native gel or EMSA. Background: A gel shift assay detects complexes by their altered migration in electrophoresis.

Results are given in words; binding and its absence hold for the method and conditions named. Some binding calls cover weakened binding; strength is not graded here.

Regarding “yMsh4-yMsh5 (from UniProt P40965;Q12175) (complex)”, the binding result was “binds”.
